These results are taken from PMC6769459, “Inhibition of Tyrosine-Phosphorylated STAT3 in Human Breast and Lung Cancer Cells by Manuka Honey is Mediated by Selective Antagonism of the IL-6 Receptor” (International Journal of Molecular Sciences, 2019).

For the test, the target named is T1, IL-11 receptor α chain (IL-11Rα), recombinant (UniProt Q14626).
T1 sequence: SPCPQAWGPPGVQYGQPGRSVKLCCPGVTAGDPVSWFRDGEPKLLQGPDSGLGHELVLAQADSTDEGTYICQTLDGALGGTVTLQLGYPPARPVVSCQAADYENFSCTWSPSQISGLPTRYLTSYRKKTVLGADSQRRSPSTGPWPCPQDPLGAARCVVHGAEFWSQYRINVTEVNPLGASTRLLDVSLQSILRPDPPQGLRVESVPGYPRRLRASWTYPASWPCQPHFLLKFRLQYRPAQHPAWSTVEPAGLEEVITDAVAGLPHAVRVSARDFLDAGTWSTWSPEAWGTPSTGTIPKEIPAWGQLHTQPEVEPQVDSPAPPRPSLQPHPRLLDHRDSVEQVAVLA
Put plainly: ELISA; receptor coated on 96-well plates overnight at 4 °C (IL-6Rα 2 μg/mL, IL-8R 0.5 μg/mL, IL-11Rα 1 μg/mL), blocked with 1% BSA in PBS; pre-incubated 1 h at room temperature with Manuka honey (0.03–3%), sugar control or flavonoids (0.5–50 μM), washed; cytokine 50 ng/mL added for 1 h at 37 °C; detected with biotin-conjugated mAb to the cytokine and HRP-streptavidin; both purified. (In an ELISA, binding on a coated surface is turned into a signal by an enzyme label.)

No constants are given. Whether binding was seen depends on the method and setting. Some binding calls cover weakened binding; strength is not graded here.

B1: IL-11, recombinant (ligand, UniProt P20809 22-199)
chain: PGPPPGPPRVSPDPRAELDSTVLLTRSLLADTRQLAAQLRDKFPADGDHNLDSLPTLAMSAGALGALQLPGVLTRLRADLLSYLRHVQWLRRAGGSSLKTLEPELGTLQARLDRLLRRLQLLMSRLALPQPPPDPPAPPLAPPSSAWGGIRAAHAILGGLHLTLDWAVRGLLLLKTRL
With B1, the binding entry is “binds”.
